Source: PMC10127389
No constants are given. Whether binding was seen depends on the method and setting. Binding seen in cells or lysates may run through a third protein. Tags and fused reporters may be left off the sequences shown.

By UniProt entry, the sequences of proteins in these tests, tags left out.
UniProt P38543: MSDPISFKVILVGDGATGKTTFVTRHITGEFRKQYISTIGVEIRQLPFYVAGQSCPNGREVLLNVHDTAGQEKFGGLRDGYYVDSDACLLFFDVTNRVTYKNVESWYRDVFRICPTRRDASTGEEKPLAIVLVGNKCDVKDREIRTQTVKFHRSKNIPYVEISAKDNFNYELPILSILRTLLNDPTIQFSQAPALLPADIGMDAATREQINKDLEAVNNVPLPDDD

Target: T1, human MLF2 (human myeloid leukemia factor 2), HA-tagged, expressed from pPhMLF2 in G. lamblia (human) (UniProt Q15773)
T1 sequence: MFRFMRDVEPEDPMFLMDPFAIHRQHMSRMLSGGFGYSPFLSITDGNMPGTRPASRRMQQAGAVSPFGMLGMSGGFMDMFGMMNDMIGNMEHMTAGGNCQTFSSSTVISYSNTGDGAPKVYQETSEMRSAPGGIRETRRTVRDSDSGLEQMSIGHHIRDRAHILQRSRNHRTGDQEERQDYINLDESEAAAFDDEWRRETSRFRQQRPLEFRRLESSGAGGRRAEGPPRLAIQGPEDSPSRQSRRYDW
Test: co-IP; lysates of pPhMLF2 stable transfectants of G. lamblia in growth medium; precipitated with anti-HA antibody conjugated to beads; Western blot with anti-HA, anti-MLF and anti-RAN; 5'Δ5N-Pac cell line as control

Giardia lamblia RAN, endogenous (from UniProt P38543 1-226)
binding: no binding
